In the supplement of paper PMC12823440, “Inhibitors supercharge kinase turnover through native proteolytic circuits” (Nature, 2025):
The list shows a part of the results. The calls rarely recur for the same compound in another form.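 In K562 cells expressing nanoluciferase-fused kinases, luminescence was recorded at 4 h intervals between 2 and 18 h, normalized as percent of control with DMSO at 100% and a positive control at 0%. A significant (2 sigma) signal drop marks a time point as decreased. The authors' rule for a hit is not shown and takes in more than the number of time points.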

Protein sequences, listed by entry. Tags and fused reporters are not part of them. Lines headed by an entry give the natural chain unless they say otherwise; changes in a name come on top.
UniProt Q9NYA1, whole entry: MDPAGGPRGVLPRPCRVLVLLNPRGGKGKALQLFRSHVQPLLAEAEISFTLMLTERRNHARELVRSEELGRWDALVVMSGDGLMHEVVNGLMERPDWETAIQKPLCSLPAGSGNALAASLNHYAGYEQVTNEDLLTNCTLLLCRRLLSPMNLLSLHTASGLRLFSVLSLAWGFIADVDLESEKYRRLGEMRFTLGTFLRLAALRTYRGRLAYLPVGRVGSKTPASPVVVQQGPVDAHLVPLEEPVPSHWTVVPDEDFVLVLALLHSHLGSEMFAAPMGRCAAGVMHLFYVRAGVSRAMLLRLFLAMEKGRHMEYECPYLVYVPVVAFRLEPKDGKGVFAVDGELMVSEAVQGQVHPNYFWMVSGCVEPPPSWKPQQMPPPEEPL
UniProt O96013: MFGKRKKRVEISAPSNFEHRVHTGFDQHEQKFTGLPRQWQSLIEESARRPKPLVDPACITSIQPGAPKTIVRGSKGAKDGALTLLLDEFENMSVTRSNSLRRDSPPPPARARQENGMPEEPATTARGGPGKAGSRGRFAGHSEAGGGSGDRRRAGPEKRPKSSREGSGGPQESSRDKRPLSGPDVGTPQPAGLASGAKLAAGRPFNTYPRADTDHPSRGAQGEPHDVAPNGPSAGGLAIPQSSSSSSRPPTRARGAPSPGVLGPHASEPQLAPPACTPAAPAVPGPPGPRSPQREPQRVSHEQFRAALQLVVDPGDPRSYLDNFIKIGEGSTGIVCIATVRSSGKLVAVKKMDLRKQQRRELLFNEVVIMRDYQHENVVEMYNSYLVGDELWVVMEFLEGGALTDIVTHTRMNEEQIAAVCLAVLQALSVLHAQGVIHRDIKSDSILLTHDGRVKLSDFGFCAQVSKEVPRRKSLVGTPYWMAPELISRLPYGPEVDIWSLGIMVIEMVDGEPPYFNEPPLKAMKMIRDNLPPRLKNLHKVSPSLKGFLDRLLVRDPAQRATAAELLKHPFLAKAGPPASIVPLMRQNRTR
UniProt Q16620, whole entry, looked up: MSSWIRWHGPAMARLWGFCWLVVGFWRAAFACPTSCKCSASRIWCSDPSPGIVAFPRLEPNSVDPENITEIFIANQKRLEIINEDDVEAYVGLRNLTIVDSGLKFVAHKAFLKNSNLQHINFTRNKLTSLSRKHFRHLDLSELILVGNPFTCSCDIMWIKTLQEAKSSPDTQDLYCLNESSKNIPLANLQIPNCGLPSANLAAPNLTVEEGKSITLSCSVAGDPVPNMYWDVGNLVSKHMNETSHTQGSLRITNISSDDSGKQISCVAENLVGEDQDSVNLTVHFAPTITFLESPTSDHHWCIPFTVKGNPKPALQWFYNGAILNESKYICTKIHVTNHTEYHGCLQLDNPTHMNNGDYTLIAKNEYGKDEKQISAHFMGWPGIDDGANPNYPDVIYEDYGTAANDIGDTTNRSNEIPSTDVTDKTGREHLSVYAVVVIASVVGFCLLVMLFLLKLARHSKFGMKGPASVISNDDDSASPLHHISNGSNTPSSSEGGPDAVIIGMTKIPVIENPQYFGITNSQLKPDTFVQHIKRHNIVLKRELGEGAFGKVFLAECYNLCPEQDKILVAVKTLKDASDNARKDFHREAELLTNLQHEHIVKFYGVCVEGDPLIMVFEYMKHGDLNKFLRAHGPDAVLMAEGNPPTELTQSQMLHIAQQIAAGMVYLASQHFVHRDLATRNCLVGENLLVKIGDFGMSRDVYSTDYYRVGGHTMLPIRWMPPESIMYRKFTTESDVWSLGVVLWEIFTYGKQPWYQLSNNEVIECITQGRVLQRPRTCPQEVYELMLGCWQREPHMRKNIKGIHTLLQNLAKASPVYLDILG
UniProt P10398: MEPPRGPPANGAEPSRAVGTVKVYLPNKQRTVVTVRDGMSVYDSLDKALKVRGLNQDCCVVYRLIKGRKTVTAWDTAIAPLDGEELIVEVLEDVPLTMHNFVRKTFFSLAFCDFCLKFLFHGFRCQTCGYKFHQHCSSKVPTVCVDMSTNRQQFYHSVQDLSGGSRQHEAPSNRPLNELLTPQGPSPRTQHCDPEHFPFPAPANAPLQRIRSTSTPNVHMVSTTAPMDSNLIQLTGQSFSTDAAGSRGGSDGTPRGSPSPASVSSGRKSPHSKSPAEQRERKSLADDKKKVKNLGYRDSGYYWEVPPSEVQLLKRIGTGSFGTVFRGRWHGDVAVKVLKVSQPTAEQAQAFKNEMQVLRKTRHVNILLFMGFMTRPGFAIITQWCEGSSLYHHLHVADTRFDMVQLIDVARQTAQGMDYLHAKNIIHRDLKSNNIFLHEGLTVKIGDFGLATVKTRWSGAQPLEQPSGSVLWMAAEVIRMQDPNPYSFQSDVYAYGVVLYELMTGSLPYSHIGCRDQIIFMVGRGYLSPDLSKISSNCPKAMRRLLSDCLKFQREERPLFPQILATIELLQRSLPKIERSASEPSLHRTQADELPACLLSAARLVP
UniProt Q01974, whole entry: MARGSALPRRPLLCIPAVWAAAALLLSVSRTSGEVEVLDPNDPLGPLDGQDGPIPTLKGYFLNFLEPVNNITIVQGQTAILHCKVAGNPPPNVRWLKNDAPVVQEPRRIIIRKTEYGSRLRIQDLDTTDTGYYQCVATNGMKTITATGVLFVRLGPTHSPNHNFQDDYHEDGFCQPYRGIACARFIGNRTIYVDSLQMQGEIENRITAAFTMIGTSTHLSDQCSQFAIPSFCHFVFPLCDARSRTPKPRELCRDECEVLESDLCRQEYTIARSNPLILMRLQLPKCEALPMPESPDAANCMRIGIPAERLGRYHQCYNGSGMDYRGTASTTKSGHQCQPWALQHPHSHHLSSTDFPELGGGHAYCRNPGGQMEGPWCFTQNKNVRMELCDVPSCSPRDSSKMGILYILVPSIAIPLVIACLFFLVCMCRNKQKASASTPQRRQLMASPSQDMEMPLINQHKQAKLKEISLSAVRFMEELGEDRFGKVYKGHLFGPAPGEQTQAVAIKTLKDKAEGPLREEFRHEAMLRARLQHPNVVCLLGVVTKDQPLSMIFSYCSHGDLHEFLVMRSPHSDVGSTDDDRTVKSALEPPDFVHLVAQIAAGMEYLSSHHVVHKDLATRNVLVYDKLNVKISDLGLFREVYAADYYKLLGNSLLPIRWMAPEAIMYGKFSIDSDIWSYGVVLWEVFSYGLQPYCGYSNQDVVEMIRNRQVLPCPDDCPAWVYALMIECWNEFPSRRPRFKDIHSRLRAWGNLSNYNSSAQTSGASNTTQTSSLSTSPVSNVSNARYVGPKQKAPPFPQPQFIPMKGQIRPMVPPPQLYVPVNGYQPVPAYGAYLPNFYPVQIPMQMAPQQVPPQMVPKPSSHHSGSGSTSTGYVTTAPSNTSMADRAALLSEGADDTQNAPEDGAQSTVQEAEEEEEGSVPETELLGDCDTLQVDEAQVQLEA
UniProt Q16288, whole entry, looked up: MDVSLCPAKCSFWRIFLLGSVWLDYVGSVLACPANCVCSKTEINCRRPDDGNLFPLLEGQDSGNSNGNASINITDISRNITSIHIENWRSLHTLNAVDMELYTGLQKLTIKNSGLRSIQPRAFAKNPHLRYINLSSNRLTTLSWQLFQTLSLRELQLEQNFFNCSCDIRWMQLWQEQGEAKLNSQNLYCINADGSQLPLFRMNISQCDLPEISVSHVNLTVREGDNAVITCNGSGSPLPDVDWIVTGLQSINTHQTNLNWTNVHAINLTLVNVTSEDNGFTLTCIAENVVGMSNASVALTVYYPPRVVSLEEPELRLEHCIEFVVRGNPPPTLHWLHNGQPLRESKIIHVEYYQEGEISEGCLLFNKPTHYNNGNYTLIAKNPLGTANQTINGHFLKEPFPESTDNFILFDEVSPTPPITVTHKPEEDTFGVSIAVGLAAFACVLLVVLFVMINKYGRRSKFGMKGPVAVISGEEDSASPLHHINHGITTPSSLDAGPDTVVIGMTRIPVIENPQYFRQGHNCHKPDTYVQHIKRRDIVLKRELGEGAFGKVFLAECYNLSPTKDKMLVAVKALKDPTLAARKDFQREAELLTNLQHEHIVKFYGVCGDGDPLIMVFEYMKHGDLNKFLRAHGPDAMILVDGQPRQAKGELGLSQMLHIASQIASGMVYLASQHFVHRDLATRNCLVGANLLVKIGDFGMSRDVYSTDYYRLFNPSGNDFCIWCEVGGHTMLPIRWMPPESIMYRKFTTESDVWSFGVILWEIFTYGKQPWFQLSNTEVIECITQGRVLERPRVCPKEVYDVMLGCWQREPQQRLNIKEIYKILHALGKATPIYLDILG
UniProt P48730: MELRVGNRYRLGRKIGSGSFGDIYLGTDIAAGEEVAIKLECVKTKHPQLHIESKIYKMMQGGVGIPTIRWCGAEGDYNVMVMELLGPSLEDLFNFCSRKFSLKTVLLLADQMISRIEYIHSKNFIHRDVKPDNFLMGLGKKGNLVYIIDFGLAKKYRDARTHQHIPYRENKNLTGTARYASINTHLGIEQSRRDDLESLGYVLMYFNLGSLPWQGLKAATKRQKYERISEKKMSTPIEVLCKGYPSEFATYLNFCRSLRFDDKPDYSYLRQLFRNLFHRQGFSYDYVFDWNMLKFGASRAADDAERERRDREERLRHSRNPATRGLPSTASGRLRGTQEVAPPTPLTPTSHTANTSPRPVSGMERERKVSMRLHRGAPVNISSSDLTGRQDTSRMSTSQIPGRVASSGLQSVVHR
UniProt Q15118, whole entry, looked up: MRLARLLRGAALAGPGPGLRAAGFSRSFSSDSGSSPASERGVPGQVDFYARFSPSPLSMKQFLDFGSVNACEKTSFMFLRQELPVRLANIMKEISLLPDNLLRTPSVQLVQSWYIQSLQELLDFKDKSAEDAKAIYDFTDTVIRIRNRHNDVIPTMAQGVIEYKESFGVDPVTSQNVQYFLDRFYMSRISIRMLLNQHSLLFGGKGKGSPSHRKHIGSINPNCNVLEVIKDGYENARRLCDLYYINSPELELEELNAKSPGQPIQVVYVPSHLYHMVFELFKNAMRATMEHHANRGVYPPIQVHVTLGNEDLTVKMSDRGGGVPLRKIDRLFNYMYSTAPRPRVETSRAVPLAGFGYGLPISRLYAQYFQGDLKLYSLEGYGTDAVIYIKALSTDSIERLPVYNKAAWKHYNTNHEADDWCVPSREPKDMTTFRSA
UniProt P36888, whole entry: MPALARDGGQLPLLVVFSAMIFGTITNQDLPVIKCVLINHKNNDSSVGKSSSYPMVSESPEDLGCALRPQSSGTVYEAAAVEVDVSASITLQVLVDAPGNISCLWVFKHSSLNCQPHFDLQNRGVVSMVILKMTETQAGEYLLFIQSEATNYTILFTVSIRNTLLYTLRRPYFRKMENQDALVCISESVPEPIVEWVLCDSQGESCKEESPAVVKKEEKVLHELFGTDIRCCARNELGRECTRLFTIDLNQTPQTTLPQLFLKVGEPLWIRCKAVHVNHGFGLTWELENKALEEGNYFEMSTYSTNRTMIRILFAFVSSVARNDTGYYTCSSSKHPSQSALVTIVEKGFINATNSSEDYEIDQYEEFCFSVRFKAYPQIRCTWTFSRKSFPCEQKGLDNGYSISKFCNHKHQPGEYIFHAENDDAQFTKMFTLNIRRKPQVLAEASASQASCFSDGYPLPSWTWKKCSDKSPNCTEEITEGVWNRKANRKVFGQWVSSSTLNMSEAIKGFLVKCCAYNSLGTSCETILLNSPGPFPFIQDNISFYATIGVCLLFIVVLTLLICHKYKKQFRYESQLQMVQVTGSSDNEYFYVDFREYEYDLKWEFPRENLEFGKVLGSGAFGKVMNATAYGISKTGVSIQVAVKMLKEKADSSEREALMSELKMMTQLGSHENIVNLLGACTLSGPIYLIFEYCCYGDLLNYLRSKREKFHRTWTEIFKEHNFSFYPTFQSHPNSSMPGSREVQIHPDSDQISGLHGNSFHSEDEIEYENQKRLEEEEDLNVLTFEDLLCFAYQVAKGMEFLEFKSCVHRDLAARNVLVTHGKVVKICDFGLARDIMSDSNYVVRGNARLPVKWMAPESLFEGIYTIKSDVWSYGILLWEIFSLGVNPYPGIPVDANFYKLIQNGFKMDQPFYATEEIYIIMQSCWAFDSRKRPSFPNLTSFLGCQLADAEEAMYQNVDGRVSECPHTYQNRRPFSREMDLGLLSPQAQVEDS
UniProt Q9UQB9: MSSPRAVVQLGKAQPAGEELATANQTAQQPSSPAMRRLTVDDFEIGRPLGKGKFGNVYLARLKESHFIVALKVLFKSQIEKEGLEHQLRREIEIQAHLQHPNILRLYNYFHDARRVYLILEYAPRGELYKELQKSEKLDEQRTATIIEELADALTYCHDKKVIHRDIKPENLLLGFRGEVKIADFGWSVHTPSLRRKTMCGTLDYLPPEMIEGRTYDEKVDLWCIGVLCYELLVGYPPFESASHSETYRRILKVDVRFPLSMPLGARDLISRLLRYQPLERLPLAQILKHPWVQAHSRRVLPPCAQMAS

Compound: CC1(C)CNc2cc(NC(=O)c3cccnc3NCc3ccncc3)ccc21 [Motesanib]
Assay: number of time points (of 5) at which kinase-Nluc abundance scored as decreased, DMSO-normalised (count); higher = more persistent destabilization
Conditions: 2.5 µM; K562; 2-18 h

Target | number of time points
FGR (UniProt P09769) | 0
PTK2B (UniProt Q14289) | 0
LMTK2 (UniProt Q8IWU2) | 0
CSK (UniProt P41240) | 0
STK38 (UniProt Q15208) | 0
ZAP70 (UniProt P43403) | 0
SYK (UniProt P43405) | 0
RIPK2 (UniProt O43353) | 0
SPHK1 (UniProt Q9NYA1) | 0
ERBB3 (UniProt P21860) | 0
PAK4 (UniProt O96013) | 0
NTRK2 (UniProt Q16620) | 0
GSK3A (UniProt P49840) | 0
MAPK4 (UniProt P31152) | 0
TYK2 (UniProt P29597) | 0
EPHA2 (UniProt P29317) | 0

Target | number of time points
DYRK2 (UniProt Q92630) | 0
ARAF (UniProt P10398) | 0
ROR2 (UniProt Q01974) | 0
PRKAA1 (UniProt Q13131) | 0
INSRR (UniProt P14616) | 0
PIK4CB (UniProt Q9UBF8) | 0
NTRK3 (UniProt Q16288) | 0
CSNK1D (UniProt P48730) | 0
PDK1 (UniProt Q15118) | 0
CDK3 (UniProt Q00526) | 0
MAP2K2 (UniProt P36507) | 0
FLT3 (UniProt P36888) | 0
AURKC (UniProt Q9UQB9) | 0
PLK1 (UniProt P53350) | 0
STK24 (UniProt Q9Y6E0) | 0

Compound: CCCCCC1CC1CC1CC1CCCCCCCC(=O)OC
Assay: as above
Conditions: 10 µM; K562; 2-18 h

Target | number of time points
FGR (UniProt P09769) | 0
PTK2B (UniProt Q14289) | 0
LMTK2 (UniProt Q8IWU2) | 0
CSK (UniProt P41240) | 0
STK38 (UniProt Q15208) | 0
ZAP70 (UniProt P43403) | 0
SYK (UniProt P43405) | 0
RIPK2 (UniProt O43353) | 0
SPHK1 (UniProt Q9NYA1) | 0
ERBB3 (UniProt P21860) | 0
PAK4 (UniProt O96013) | 0
NTRK2 (UniProt Q16620) | 0
GSK3A (UniProt P49840) | 0
MAPK4 (UniProt P31152) | 0
TYK2 (UniProt P29597) | 0
EPHA2 (UniProt P29317) | 0

Target | number of time points
DYRK2 (UniProt Q92630) | 0
ARAF (UniProt P10398) | 0
ROR2 (UniProt Q01974) | 0
PRKAA1 (UniProt Q13131) | 0
INSRR (UniProt P14616) | 0
BRAF (UniProt P15056) | 3
PIK4CB (UniProt Q9UBF8) | 0
NTRK3 (UniProt Q16288) | 0
CSNK1D (UniProt P48730) | 0
PDK1 (UniProt Q15118) | 0
CDK3 (UniProt Q00526) | 0
MAP2K2 (UniProt P36507) | 0
FLT3 (UniProt P36888) | 0
AURKC (UniProt Q9UQB9) | 0
PLK1 (UniProt P53350) | 0
STK24 (UniProt Q9Y6E0) | 0

Compound: CCCCCCCCCCCCc1ccc(S(=O)(=O)Nc2nncs2)cc1
Assay: as above
Conditions: 10 µM; K562; 2-18 h

Target | number of time points
FGR (UniProt P09769) | 0
PTK2B (UniProt Q14289) | 0
LMTK2 (UniProt Q8IWU2) | 0
CSK (UniProt P41240) | 0
STK38 (UniProt Q15208) | 0
ZAP70 (UniProt P43403) | 0
SYK (UniProt P43405) | 0
RIPK2 (UniProt O43353) | 0
SPHK1 (UniProt Q9NYA1) | 0
ERBB3 (UniProt P21860) | 0
PAK4 (UniProt O96013) | 0
NTRK2 (UniProt Q16620) | 5
GSK3A (UniProt P49840) | 0
MAPK4 (UniProt P31152) | 0
TYK2 (UniProt P29597) | 0
EPHA2 (UniProt P29317) | 0

Target | number of time points
DYRK2 (UniProt Q92630) | 0
ARAF (UniProt P10398) | 0
ROR2 (UniProt Q01974) | 0
PRKAA1 (UniProt Q13131) | 0
INSRR (UniProt P14616) | 0
BRAF (UniProt P15056) | 2
PIK4CB (UniProt Q9UBF8) | 0
NTRK3 (UniProt Q16288) | 0
CSNK1D (UniProt P48730) | 0
PDK1 (UniProt Q15118) | 0
CDK3 (UniProt Q00526) | 0
MAP2K2 (UniProt P36507) | 0
FLT3 (UniProt P36888) | 0
AURKC (UniProt Q9UQB9) | 0
PLK1 (UniProt P53350) | 0
STK24 (UniProt Q9Y6E0) | 0
